# Measurements from the supplement of paper PMC8728848.
# The other results are listed elsewhere or left out.
# B1: Flo1 (Saccharomyces cerevisiae), P32768 (protein)
# chain: SGATEACLPAGQRKSGMNINFYQYSLKDSSTYSNAAYMAYGYASKTKLGSVGGQTDISIDYNIPCVSSSGTFPCPQEDSYGNWGCKGMGACSNSQGIAYWSTDLFGFYTTPTNVTLEMTGYFLPPQTGSYTFKFATVDDSAILSVGGATAFNCCAQQQPPITSTNFTIDGIKPWGGSLPPNIEGTVYMYAGYYYPMKVVYSNAVSWGTLPISVTLPDGTTVSDDFEGYVYSFDDDLSQSNCTVPDPSNY
# What was measured:
# Test in all cases: glycan array binding signal (z-score within array); higher = stronger binding
# Conditions in all cases: glycan notation: IUPAC condensed, linker removed
# [1] = molecular target: Fuc(a1-2)Gal(b1-4)GlcNAc(b1-6)GalNAc
# How it was run: (§1)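 Arrays were curated from the Consortium for Functional Glycomics database, 3228 in total, and kept only where the protein sequence was available. Binding is expressed as a within-array Z-score. This score was averaged across arrays of the same protein sequence at different concentrations or buffers and across linkers, and negative values can be read as non-binding.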
# [2] = molecular target: Fuc(a1-2)Gal(b1-4)GlcNAc6S
# How it was run: as §1
# [3] = molecular target: Fuc(a1-2)Gal(b1-4)[Fuc(a1-3)]GlcNAc
# How it was run: as §1
# [4] = molecular target: Fuc(a1-2)Gal(b1-4)[Fuc(a1-3)]GlcNAc(b1-2)Man(a1-3)[Fuc(a1-2)Gal(b1-4)[Fuc(a1-3)]GlcNAc(b1-2)Man(a1-6)]Man(b1-4)GlcNAc(b1-4)GlcNAc
# How it was run: as §1
# [5] = molecular target: Fuc(a1-2)Gal(b1-4)[Fuc(a1-3)]GlcNAc(b1-2)Man(a1-3)[Fuc(a1-2)Gal(b1-4)[Fuc(a1-3)]GlcNAc(b1-2)Man(a1-6)]Man(b1-4)GlcNAc(b1-4)[Fuc(a1-6)]GlcNAc
# How it was run: as §1
# [6] = molecular target: Fuc(a1-2)Gal(b1-4)[Fuc(a1-3)]GlcNAc(b1-2)[Fuc(a1-2)Gal(b1-4)[Fuc(a1-3)]GlcNAc(b1-4)]Man(a1-3)[Fuc(a1-2)Gal(b1-4)[Fuc(a1-3)]GlcNAc(b1-2)Man(a1-6)]Man(b1-4)GlcNAc(b1-4)GlcNAc
# How it was run: as §1
# [7] = molecular target: Fuc(a1-2)Gal(b1-4)[Fuc(a1-3)]GlcNAc(b1-3)Gal(b1-4)[Fuc(a1-3)]GlcNAc
# How it was run: as §1
# [8] = molecular target: Fuc(a1-2)Gal(b1-4)[Fuc(a1-3)]GlcNAc(b1-3)Gal(b1-4)[Fuc(a1-3)]GlcNAc(b1-3)Gal(b1-4)[Fuc(a1-3)]GlcNAc
# How it was run: as §1
# [9] = molecular target: Fuc(a1-2)Gal(b1-4)[Fuc(a1-3)]GlcNAc(b1-3)GalNAc
# How it was run: as §1
# [10] = molecular target: Fuc(a1-2)Gal(b1-4)[Fuc(a1-3)]GlcNAc(b1-3)[Neu5Ac(a2-6)Gal(b1-4)GlcNAc(b1-6)]Gal(b1-4)Glc
# How it was run: as §1
# [11] = molecular target: Fuc(a1-2)Gal3S(b1-4)GlcNAc
# How it was run: as §1
# [12] = molecular target: Fuc(a1-2)Gal6S(b1-3)GlcNAc
# How it was run: as §1
# [13] = molecular target: Fuc(a1-2)Gal6S(b1-3)GlcNAc6S
# How it was run: as §1
# Fuc(a1-2)Gal6S(b1-4)Glc = molecular target: Fuc(a1-2)Gal6S(b1-4)Glc
# How it was run: as §1
# [14] = molecular target: Fuc(a1-2)Gal6S(b1-4)Glc6S
# How it was run: as §1
# [15] = molecular target: Fuc(a1-2)Gal6S(b1-4)GlcNAc
# How it was run: as §1
# Fuc(a1-2)[Gal(a1-3)]Gal = molecular target: Fuc(a1-2)[Gal(a1-3)]Gal
# How it was run: as §1
# [16] = molecular target: Fuc(a1-2)[Gal(a1-3)]Gal(b1-3)GalNAc
# How it was run: as §1
# [17] = molecular target: Fuc(a1-2)[Gal(a1-3)]Gal(b1-3)GalNAc(b1-3)Gal(a1-4)Gal(b1-4)Glc
# How it was run: as §1
# [18] = molecular target: Fuc(a1-2)[Gal(a1-3)]Gal(b1-3)GlcNAc
# How it was run: as §1
# [19] = molecular target: Fuc(a1-2)[Gal(a1-3)]Gal(b1-3)GlcNAc(b1-2)Man(a1-3)[Fuc(a1-2)[Gal(a1-3)]Gal(b1-3)GlcNAc(b1-2)Man(a1-6)]Man(b1-4)GlcNAc(b1-4)GlcNAc
# How it was run: as §1
# [20] = molecular target: Fuc(a1-2)[Gal(a1-3)]Gal(b1-3)GlcNAc(b1-2)Man(a1-3)[Fuc(a1-2)[Gal(a1-3)]Gal(b1-3)GlcNAc(b1-2)Man(a1-6)]Man(b1-4)GlcNAc(b1-4)[Fuc(a1-6)]GlcNAc
# How it was run: as §1
# [21] = molecular target: Fuc(a1-2)[Gal(a1-3)]Gal(b1-3)GlcNAc(b1-3)GalNAc
# How it was run: as §1
# [22] = molecular target: Fuc(a1-2)[Gal(a1-3)]Gal(b1-3)GlcNAc(b1-6)GalNAc
# How it was run: as §1
# [23] = molecular target: Fuc(a1-2)[Gal(a1-3)]Gal(b1-4)Glc
# How it was run: as §1
# [24] = molecular target: Fuc(a1-2)[Gal(a1-3)]Gal(b1-4)GlcNAc
# How it was run: as §1
# [25] = molecular target: Fuc(a1-2)[Gal(a1-3)]Gal(b1-4)GlcNAc(b1-2)Man
# How it was run: as §1
# [26] = molecular target: Fuc(a1-2)[Gal(a1-3)]Gal(b1-4)GlcNAc(b1-2)Man(a1-3)[Fuc(a1-2)[Gal(a1-3)]Gal(b1-4)GlcNAc(b1-2)Man(a1-6)]Man(b1-4)GlcNAc(b1-4)GlcNAc
# How it was run: as §1
# [27] = molecular target: Fuc(a1-2)[Gal(a1-3)]Gal(b1-4)GlcNAc(b1-2)Man(a1-3)[Fuc(a1-2)[Gal(a1-3)]Gal(b1-4)GlcNAc(b1-2)Man(a1-6)]Man(b1-4)GlcNAc(b1-4)[Fuc(a1-6)]GlcNAc
# How it was run: as §1
# [28] = molecular target: Fuc(a1-2)[Gal(a1-3)]Gal(b1-4)GlcNAc(b1-3)GalNAc
# How it was run: as §1
# [29] = molecular target: Fuc(a1-2)[Gal(a1-3)]Gal(b1-4)GlcNAc(b1-3)[Fuc(a1-2)[Gal(a1-3)]Gal(b1-4)GlcNAc(b1-6)]GalNAc
# How it was run: as §1
# [30] = molecular target: Fuc(a1-2)[Gal(a1-3)]Gal(b1-4)GlcNAc(b1-6)GalNAc
# How it was run: as §1
# [31] = molecular target: Fuc(a1-2)[Gal(a1-3)]Gal(b1-4)[Fuc(a1-3)]Glc
# How it was run: as §1
# [32] = molecular target: Fuc(a1-2)[Gal(a1-3)]Gal(b1-4)[Fuc(a1-3)]GlcNAc
# How it was run: as §1
# [33] = molecular target: Fuc(a1-2)[Gal(a1-3)]Gal(b1-4)[Fuc(a1-3)]GlcNAc(b1-3)GalNAc
# How it was run: as §1
# [34] = molecular target: Fuc(a1-2)[Gal(a1-4)]Gal(b1-4)GlcNAc
# How it was run: as §1
# [35] = molecular target: Fuc(a1-2)[GalNAc(a1-3)]Gal
# How it was run: as §1
# [36] = molecular target: Fuc(a1-2)[GalNAc(a1-3)]Gal(b1-3)GalNAc(a1-3)[Fuc(a1-2)]Gal(b1-4)GlcNAc
# How it was run: as §1
binder,measurement,setting,value
B1,glycan array binding signal (z-score),[1],0.315
same,glycan array binding signal (z-score),[2],-0.166
same,glycan array binding signal (z-score),[3],-0.115
same,glycan array binding signal (z-score),[4],2.48
same,glycan array binding signal (z-score),[5],0.045
same,glycan array binding signal (z-score),[6],1.04
same,glycan array binding signal (z-score),[7],0.346
same,glycan array binding signal (z-score),[8],0.144
same,glycan array binding signal (z-score),[9],1.41
same,glycan array binding signal (z-score),[10],0.56
same,glycan array binding signal (z-score),[11],-0.517
same,glycan array binding signal (z-score),[12],-0.605
same,glycan array binding signal (z-score),[13],-0.099
same,glycan array binding signal (z-score),Fuc(a1-2)Gal6S(b1-4)Glc,0.6
same,glycan array binding signal (z-score),[14],0.252
same,glycan array binding signal (z-score),[15],-0.204
same,glycan array binding signal (z-score),Fuc(a1-2)[Gal(a1-3)]Gal,-0.228
same,glycan array binding signal (z-score),[16],0.232
same,glycan array binding signal (z-score),[17],-0.189
same,glycan array binding signal (z-score),[18],-0.078
same,glycan array binding signal (z-score),[19],0.215
same,glycan array binding signal (z-score),[20],-0.239
same,glycan array binding signal (z-score),[21],2.18
same,glycan array binding signal (z-score),[22],-0.595
same,glycan array binding signal (z-score),[23],-0.433
same,glycan array binding signal (z-score),[24],0.062
same,glycan array binding signal (z-score),[25],-0.048
same,glycan array binding signal (z-score),[26],0.13
same,glycan array binding signal (z-score),[27],3.01
same,glycan array binding signal (z-score),[28],0.111
same,glycan array binding signal (z-score),[29],0.353
same,glycan array binding signal (z-score),[30],-0.155
same,glycan array binding signal (z-score),[31],-0.047
same,glycan array binding signal (z-score),[32],0.247
same,glycan array binding signal (z-score),[33],1.15
same,glycan array binding signal (z-score),[34],-0.409
same,glycan array binding signal (z-score),[35],-0.514
same,glycan array binding signal (z-score),[36],0.065

# Already shown: entries from further up.
binder,measurement,setting,value
B1,glycan array binding signal (z-score),Fuc(a1-2)[Gal(a1-3)]Gal,-0.228
same,glycan array binding signal (z-score),[16],0.232
same,glycan array binding signal (z-score),[17],-0.189
